The supplement of paper PMC12819154, “High-throughput peptide-centric local stability assay extends protein–ligand identification to membrane proteins, tissues and bacteria” (Nature Structural & Molecular Biology, 2025)
The other results are listed elsewhere or left out. Most entries show no effect beyond the scatter of the controls.

Amino acid sequences for entries named in this document (tags omitted). A change or cut given only in a name is not applied to a line headed by its entry.
UniProt P16152: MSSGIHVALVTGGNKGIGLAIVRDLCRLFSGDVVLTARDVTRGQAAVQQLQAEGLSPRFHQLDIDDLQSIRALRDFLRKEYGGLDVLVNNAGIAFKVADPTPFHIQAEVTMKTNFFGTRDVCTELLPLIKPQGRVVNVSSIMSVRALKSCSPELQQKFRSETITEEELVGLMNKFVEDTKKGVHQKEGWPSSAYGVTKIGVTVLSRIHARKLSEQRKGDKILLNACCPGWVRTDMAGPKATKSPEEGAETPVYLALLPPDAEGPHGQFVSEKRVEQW
UniProt P17174: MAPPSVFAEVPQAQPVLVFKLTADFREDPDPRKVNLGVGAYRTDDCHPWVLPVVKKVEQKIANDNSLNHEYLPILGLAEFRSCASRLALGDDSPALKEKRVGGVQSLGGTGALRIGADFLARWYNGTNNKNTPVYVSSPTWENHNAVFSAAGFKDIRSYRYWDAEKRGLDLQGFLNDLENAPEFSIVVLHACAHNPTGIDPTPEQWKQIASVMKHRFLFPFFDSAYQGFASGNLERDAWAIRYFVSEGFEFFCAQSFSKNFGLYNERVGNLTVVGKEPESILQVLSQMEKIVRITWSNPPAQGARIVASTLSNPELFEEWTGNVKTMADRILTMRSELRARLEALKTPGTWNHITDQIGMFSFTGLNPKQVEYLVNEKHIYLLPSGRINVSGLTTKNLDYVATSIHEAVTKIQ
UniProt P14324: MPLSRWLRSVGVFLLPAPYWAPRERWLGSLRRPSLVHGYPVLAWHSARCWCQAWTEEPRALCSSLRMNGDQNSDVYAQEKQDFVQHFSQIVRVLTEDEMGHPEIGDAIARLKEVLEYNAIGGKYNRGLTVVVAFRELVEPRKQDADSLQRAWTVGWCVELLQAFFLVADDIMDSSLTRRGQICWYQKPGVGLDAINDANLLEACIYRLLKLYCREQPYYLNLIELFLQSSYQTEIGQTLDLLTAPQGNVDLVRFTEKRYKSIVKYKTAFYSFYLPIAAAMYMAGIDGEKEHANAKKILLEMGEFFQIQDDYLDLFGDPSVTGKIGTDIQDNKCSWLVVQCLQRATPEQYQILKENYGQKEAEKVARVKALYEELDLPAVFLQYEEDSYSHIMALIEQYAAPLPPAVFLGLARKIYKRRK
UniProt P15036: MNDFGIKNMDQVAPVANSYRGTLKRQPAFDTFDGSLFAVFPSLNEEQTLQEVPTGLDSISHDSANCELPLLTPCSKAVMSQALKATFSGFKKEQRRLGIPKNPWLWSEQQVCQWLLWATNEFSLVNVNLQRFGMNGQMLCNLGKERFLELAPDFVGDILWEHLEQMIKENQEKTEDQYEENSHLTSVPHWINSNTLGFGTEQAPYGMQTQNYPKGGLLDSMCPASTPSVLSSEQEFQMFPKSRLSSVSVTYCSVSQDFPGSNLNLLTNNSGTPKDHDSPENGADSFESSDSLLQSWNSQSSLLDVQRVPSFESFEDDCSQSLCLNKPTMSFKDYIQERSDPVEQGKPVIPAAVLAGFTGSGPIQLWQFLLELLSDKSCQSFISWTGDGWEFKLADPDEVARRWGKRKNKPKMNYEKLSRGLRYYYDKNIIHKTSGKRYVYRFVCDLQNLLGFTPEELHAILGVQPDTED
UniProt P18146, whole entry, looked up: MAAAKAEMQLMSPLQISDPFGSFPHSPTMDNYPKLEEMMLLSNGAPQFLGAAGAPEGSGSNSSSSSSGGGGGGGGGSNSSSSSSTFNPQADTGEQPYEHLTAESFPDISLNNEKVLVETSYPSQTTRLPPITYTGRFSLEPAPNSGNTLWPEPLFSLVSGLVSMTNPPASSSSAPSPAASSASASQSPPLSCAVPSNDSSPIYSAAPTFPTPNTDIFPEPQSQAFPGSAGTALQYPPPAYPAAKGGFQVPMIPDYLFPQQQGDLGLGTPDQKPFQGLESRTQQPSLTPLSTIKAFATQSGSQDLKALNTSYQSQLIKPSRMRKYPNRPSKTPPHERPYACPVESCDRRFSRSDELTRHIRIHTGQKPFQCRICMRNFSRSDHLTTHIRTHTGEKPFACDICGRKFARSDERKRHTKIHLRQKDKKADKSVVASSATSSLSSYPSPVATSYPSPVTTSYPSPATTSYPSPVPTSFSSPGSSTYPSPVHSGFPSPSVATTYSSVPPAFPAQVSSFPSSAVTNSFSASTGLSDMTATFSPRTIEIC
UniProt P18858, whole entry: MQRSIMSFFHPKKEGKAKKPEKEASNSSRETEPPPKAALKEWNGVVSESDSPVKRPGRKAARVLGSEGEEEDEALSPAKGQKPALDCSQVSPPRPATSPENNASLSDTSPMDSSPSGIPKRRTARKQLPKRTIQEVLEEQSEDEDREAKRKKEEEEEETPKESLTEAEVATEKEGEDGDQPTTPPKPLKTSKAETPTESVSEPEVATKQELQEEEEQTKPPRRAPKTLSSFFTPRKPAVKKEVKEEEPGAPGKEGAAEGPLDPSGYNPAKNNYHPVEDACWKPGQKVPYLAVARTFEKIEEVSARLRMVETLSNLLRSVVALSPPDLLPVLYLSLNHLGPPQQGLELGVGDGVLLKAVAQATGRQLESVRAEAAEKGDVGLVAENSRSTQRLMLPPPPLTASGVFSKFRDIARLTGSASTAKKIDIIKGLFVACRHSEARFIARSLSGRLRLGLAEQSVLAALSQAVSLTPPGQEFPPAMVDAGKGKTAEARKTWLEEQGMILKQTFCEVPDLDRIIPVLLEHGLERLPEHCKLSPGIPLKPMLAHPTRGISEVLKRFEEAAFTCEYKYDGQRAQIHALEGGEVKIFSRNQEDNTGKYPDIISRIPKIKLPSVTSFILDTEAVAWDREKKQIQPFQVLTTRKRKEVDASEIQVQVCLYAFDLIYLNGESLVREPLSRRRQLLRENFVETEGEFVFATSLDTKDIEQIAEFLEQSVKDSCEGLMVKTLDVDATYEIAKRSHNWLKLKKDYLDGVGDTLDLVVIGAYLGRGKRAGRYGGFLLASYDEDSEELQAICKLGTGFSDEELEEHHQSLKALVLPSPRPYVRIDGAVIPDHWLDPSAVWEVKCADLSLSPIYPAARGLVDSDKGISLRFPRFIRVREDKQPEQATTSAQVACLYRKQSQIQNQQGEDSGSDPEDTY
UniProt P17028: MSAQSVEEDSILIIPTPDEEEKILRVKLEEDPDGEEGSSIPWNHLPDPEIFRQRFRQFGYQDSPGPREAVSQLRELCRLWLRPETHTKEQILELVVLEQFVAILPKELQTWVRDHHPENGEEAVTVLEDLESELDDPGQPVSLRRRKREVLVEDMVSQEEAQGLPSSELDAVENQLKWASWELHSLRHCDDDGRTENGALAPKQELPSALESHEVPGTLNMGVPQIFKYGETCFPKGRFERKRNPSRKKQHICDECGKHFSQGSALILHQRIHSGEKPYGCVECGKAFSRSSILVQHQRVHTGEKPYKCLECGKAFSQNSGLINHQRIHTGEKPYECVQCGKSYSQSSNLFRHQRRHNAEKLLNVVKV
UniProt P20933: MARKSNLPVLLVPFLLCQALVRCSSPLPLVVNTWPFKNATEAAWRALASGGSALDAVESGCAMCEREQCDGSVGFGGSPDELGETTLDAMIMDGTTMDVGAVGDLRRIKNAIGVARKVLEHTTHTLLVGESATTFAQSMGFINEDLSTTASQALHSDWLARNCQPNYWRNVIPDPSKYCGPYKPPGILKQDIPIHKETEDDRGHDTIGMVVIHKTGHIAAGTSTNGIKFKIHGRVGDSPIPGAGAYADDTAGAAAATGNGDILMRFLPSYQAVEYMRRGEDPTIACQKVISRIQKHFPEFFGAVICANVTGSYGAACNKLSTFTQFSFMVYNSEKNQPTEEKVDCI
UniProt P15927: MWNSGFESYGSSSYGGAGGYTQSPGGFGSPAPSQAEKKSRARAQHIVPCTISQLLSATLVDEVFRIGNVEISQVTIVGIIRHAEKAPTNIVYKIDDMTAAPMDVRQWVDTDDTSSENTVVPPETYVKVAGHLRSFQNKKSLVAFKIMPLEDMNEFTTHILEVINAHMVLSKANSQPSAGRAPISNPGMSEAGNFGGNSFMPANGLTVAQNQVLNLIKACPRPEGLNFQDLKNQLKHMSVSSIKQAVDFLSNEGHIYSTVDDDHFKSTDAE
UniProt P14316: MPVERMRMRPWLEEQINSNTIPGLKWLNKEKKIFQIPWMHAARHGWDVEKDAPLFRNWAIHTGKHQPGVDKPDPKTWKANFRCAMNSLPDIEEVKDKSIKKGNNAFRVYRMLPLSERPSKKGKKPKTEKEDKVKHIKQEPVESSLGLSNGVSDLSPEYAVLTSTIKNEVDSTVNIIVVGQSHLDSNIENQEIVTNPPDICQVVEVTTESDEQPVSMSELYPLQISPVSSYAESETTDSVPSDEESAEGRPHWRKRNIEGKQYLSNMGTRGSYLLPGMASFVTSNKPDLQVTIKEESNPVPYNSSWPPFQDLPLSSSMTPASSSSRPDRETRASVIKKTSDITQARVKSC
UniProt P26367: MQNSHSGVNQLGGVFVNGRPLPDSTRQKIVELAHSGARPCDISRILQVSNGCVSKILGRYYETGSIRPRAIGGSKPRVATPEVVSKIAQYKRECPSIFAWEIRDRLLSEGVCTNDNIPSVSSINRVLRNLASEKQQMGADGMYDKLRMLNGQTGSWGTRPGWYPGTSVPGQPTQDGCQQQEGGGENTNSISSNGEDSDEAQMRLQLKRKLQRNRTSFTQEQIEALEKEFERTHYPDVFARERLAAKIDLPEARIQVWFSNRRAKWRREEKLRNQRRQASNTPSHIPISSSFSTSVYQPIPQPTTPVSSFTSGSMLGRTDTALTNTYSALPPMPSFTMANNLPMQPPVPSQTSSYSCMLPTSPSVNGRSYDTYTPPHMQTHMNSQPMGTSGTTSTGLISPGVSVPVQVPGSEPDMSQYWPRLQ
UniProt P20073: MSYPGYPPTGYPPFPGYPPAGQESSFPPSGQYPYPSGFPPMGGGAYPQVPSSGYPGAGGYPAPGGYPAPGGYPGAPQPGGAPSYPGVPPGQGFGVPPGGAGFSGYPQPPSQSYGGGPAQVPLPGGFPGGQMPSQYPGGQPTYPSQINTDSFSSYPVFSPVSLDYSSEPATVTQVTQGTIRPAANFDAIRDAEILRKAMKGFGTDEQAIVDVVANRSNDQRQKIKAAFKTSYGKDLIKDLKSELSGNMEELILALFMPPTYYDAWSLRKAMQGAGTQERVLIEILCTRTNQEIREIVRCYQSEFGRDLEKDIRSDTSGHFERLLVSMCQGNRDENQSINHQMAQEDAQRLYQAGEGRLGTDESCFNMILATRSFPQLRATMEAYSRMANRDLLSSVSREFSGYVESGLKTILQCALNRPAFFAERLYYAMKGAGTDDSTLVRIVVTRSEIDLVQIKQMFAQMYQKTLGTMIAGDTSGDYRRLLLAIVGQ
UniProt P14854, whole entry: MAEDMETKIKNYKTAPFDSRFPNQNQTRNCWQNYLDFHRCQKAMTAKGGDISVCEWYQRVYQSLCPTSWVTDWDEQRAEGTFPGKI
UniProt P18054: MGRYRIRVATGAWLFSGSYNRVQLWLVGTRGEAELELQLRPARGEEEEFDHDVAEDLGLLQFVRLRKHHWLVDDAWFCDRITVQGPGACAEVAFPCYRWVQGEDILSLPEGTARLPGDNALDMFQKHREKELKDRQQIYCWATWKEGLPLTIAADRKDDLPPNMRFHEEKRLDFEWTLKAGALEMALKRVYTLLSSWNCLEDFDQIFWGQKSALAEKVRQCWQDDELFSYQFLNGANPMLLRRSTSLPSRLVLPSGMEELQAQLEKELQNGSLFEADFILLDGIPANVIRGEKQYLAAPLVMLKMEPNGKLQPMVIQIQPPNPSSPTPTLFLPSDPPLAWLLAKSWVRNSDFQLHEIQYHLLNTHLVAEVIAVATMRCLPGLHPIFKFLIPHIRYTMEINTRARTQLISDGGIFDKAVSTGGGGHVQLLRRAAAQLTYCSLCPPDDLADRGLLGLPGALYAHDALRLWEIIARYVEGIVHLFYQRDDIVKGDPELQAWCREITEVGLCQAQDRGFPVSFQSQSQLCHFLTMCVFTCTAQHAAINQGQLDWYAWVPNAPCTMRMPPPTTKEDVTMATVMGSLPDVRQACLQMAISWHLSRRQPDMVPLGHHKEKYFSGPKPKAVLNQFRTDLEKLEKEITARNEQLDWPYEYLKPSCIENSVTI
UniProt P18859: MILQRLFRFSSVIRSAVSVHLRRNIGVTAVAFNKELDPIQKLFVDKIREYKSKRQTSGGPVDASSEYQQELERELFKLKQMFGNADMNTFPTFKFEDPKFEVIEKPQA
UniProt P22234: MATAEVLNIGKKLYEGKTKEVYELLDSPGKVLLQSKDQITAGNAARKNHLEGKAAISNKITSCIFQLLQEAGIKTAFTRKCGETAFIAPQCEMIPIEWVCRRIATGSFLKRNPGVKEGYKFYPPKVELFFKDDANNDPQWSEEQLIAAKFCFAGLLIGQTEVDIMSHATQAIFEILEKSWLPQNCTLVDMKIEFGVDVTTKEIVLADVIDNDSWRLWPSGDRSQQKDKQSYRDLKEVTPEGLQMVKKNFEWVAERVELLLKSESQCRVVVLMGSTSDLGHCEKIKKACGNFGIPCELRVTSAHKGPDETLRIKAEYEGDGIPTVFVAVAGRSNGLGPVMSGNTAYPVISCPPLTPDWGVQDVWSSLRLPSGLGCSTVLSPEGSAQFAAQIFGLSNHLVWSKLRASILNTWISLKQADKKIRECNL

Compound: CN[C@@H]1C[C@H]2O[C@@](C)([C@@H]1OC)n1c3ccccc3c3c4c(c5c6ccccc6n2c5c31)C(=O)NC4 [staurosporine]
Test: log2 fold change of tryptic peptide abundance, ligand vs vehicle (limited proteolysis) (log2 ratio); higher = more trypsin-susceptible (destabilized)
Conditions: ligand concentration: 20 uM; sample: K562 cleared lysate; digestion: 4 min, 22 C (HT-PELSA RT4min, Orbitrap Astral)

Work on “PHKG2 (peptide sequence: LYGHWVK, peptide start residue: 357) (UniProt P15735)” yielded a log2 fold change of 0.305.

Work on “CBR1 (peptide sequence: GQAAVQQLQAEGLSPR, peptide start residue: 43) (UniProt P16152)” yielded a log2 fold change of 0.298.

Target “GOT1 (peptide sequence: LALGDDSPALK, peptide start residue: 87) (UniProt P17174)” has a log2 fold change of 0.346.

Target “POLR2C (peptide sequence: PYANQPTVR, peptide start residue: 2) (UniProt P19387)” has a log2 fold change of -0.185.

“FDPS (peptide sequence: EVLEYNAIGGK, peptide start residue: 113) (UniProt P14324)” showed a log2 fold change of -0.321.

For “PPP3CB (peptide sequence: EESESVLTLK, peptide start residue: 424) (UniProt P16298)”, the log2 fold change was 0.555.

“U2AF2 (peptide sequence: SIEIPRPVDGVEVPGCGK, peptide start residue: 414) (UniProt P26368)” was tested, and the log2 fold change was 0.386.

In the case of “MCM3 (peptide sequence: AILCLLLGGVER, peptide start residue: 316) (UniProt P25205)”, the log2 fold change is reported as -0.158.

“HOXB9 (peptide sequence: QPGHAEHLEFPSCSFQPK, peptide start residue: 38) (UniProt P17482)” showed a log2 fold change of -0.5.

With “UQCRB (peptide sequence: DDTIYEDEDVKEAIR, peptide start residue: 35) (UniProt P14927)” the log2 fold change was -0.266.

For “AMD1 (peptide sequence: DVQCSIISVTK, peptide start residue: 46) (UniProt P17707)”, the log2 fold change was -0.75.

Work on “RHOQ (peptide sequence: CVVVGDGAVGK, peptide start residue: 6) (UniProt P17081)” yielded a log2 fold change of 0.0581.

For “UniProt P27361 (peptide sequence: ISPFEHQTYCQR, peptide start residue: 56)”, the log2 fold change was -0.486.

“ATF7 (peptide sequence: KAADEDEKK, peptide start residue: 80) (UniProt P17544)” gave a log2 fold change of 0.583.

“YWHAQ (peptide sequence: VISSIEQKTDTSDKK, peptide start residue: 61) (UniProt P27348)” gave a log2 fold change of 0.653.

For “GYS1 (peptide sequence: RASCTSSTSGSKR, peptide start residue: 696) (UniProt P13807)”, the log2 fold change was -1.

For “ANK1 (peptide sequence: EGHVETVLALLEKEASQACMTK, peptide start residue: 513) (UniProt P16157)”, the log2 fold change was 0.326.

With “GATA1 (peptide sequence: GSTSFLETLKTER, peptide start residue: 128) (UniProt P15976)” the log2 fold change was -0.437.

“UniProt P15036 (peptide sequence: LADPDEVAR, peptide start residue: 393)” showed a log2 fold change of 0.252.

With “EGR1 (peptide sequence: AFATQSGSQDLK, peptide start residue: 294) (UniProt P18146)” the log2 fold change was -0.753.

Work on “HRC (peptide sequence: QSHQDEETGHGQR, peptide start residue: 443) (UniProt P23327)” yielded a log2 fold change of 0.763.

In the case of “APEH (peptide sequence: SFNLSALEK, peptide start residue: 132) (UniProt P13798)”, the log2 fold change is reported as 0.313.

“UniProt P21108 (peptide sequence: NCIIVSPDAGGAK, peptide start residue: 164)” was tested, and the log2 fold change was 0.228.

Work on “UniProt P19544 (peptide sequence: HHNMHQR, peptide start residue: 434)” yielded a log2 fold change of 0.593.

For “UniProt P17035 (peptide sequence: SFQCIESGK, peptide start residue: 214)”, the log2 fold change was -0.287.

“LIG1 (peptide sequence: LMLPPPPLTASGVFSK, peptide start residue: 392) (UniProt P18858)” showed a log2 fold change of -0.153.

“UniProt P26651 (peptide sequence: RDPTPVCCPSCR, peptide start residue: 243)” was tested, and the log2 fold change was -0.318.

In the case of “MYL6B (peptide sequence: NRGQGTYEDYLEGFR, peptide start residue: 137) (UniProt P14649)”, the log2 fold change is reported as -0.457.

“VAV1 (peptide sequence: YHLLLQELVK, peptide start residue: 336) (UniProt P15498)” gave a log2 fold change of 0.191.

Work on “SNRPB (peptide sequence: HMNLILCDCDEFRK, peptide start residue: 37) (UniProt P14678)” yielded a log2 fold change of -0.201.

In the case of “ZNF24 (peptide sequence: TENGALAPK, peptide start residue: 195) (UniProt P17028)”, the log2 fold change is reported as 0.369.

“AGA (peptide sequence: NCQPNYWR, peptide start residue: 162) (UniProt P20933)” was tested, and the log2 fold change was -0.269.

With “TCEA1 (peptide sequence: LLDGPSTEKDLDEKK, peptide start residue: 76) (UniProt P23193)” the log2 fold change was -0.264.

Work on “APEX1 (peptide sequence: KGAVAEDGDELRTEPEAK, peptide start residue: 7) (UniProt P27695)” yielded a log2 fold change of -0.0749.

In the case of “DCK (peptide sequence: STFVNILK, peptide start residue: 35) (UniProt P27707)”, the log2 fold change is reported as -0.187.

“RPA2 (peptide sequence: ACPRPEGLNFQDLK, peptide start residue: 218) (UniProt P15927)” showed a log2 fold change of 0.07.

In the case of “IRF2 (peptide sequence: CAMNSLPDIEEVKDK, peptide start residue: 83) (UniProt P14316)”, the log2 fold change is reported as -0.26.

Work on “UniProt P26367 (peptide sequence: QQMGADGMYDKLR, peptide start residue: 135)” yielded a log2 fold change of 0.448.

Work on “NEB (peptide sequence: YHEDFEK, peptide start residue: 785) (UniProt P20929)” yielded a log2 fold change of 0.0685.

Work on “TNFRSF1B (peptide sequence: VPHLPADK, peptide start residue: 300) (UniProt P20333)” yielded a log2 fold change of -0.268.

“UniProt P17812 (peptide sequence: IQAIAWAR, peptide start residue: 382)” was tested, and the log2 fold change was -0.174.

“ANXA7 (peptide sequence: TLGTMIAGDTSGDYRR, peptide start residue: 465) (UniProt P20073)” gave a log2 fold change of 0.404.

“COX6B1 (peptide sequence: AEGTFPGKI, peptide start residue: 78) (UniProt P14854)” was tested, and the log2 fold change was -0.119.

“UniProt P18054 (peptide sequence: TDLEKLEK, peptide start residue: 629)” gave a log2 fold change of -0.0602.

With “FLNA (peptide sequence: FNGTHIPGSPFK, peptide start residue: 2406) (UniProt P21333)” the log2 fold change was 0.192.

With “HNRNPA2B1 (peptide sequence: YHTINGHNAEVRK, peptide start residue: 174) (UniProt P22626)” the log2 fold change was -0.21.

“TCF3 (peptide sequence: DINEAFKELGR, peptide start residue: 592) (UniProt P15923)” showed a log2 fold change of -0.288.

Target “UniProt P18859 (peptide sequence: FEDPKFEVIEKPQA, peptide start residue: 95)” has a log2 fold change of -0.059.

Target “UniProt P20807 (peptide sequence: GKTSPDKQK, peptide start residue: 626)” has a log2 fold change of -0.0723.

In the case of “PAICS (peptide sequence: KNFEWVAERVELLLK, peptide start residue: 247) (UniProt P22234)”, the log2 fold change is reported as 0.61.
